Data on nine molecules can be found in PMC5834214.

Protein sequences, listed by entry. Tags and fused reporters are not part of them.
UniProt P09992: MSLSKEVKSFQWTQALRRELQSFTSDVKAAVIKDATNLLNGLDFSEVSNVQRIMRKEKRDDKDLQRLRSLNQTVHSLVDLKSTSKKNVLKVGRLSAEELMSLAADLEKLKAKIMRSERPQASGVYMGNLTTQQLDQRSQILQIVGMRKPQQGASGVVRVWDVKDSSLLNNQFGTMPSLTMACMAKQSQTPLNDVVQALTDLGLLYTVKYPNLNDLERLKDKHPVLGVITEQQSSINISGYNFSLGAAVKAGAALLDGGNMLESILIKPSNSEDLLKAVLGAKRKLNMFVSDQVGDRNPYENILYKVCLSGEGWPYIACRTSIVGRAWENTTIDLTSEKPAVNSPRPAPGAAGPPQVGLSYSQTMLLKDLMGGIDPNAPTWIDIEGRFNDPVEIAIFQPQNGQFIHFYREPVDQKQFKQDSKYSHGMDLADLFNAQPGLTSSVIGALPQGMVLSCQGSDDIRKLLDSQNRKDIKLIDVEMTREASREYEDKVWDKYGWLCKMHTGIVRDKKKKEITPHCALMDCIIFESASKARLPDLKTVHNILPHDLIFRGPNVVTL

The labels stand for the following.
B1: Keratin, type II cuticular Hb1 (protein, UniProt Q14533 1-505)
chain: MTCGSGFGGRAFSCISACGPRPGRCCITAAPYRGISCYRGLTGGFGSHSVCGGFRAGSCGRSFGYRSGGVCGPSPPCITTVSVNESLLTPLNLEIDPNAQCVKQEEKEQIKSLNSRFAAFIDKVRFLEQQNKLLETKLQFYQNRECCQSNLEPLFEGYIETLRREAECVEADSGRLASELNHVQEVLEGYKKKYEEEVSLRATAENEFVALKKDVDCAYLRKSDLEANVEALIQEIDFLRRLYEEEILILQSHISDTSVVVKLDNSRDLNMDCIIAEIKAQYDDIVTRSRAEAESWYRSKCEEMKATVIRHGETLRRTKEEINELNRMIQRLTAEVENAKCQNSKLEAAVAQSEQQGEAALSDARCKLAELEGALQKAKQDMACLIREYQEVMNSKLGLDIEIATYRRLLEGEEQRLCEGIGAVNVCVSSSRGGVVCGDLCVSGSRPVTGSVCSAPCNGNVAVSTGLCAPCGQLNTTCGGGSCGVGSCGISSLGVGSCGSSCRKC
B2: Arginine—tRNA ligase, cytoplasmic (protein, UniProt P54136 1-660)
chain: MDVLVSECSARLLQQEEEIKSLTAEIDRLKNCGCLGASPNLEQLQEENLKLKYRLNILRKSLQAERNKPTKNMINIISRLQEVFGHAIKAAYPDLENPPLLVTPSQQAKFGDYQCNSAMGISQMLKTKEQKVNPREIAENITKHLPDNECIEKVEIAGPGFINVHLRKDFVSEQLTSLLVNGVQLPALGENKKVIVDFSSPNIAKEMHVGHLRSTIIGESISRLFEFAGYDVLRLNHVGDWGTQFGMLIAHLQDKFPDYLTVSPPIGDLQVFYKESKKRFDTEEEFKKRAYQCVVLLQGKNPDITKAWKLICDVSRQELNKIYDALDVSLIERGESFYQDRMNDIVKEFEDRGFVQVDDGRKIVFVPGCSIPLTIVKSDGGYTYDTSDLAAIKQRLFEEKADMIIYVVDNGQSVHFQTIFAAAQMIGWYDPKVTRVFHAGFGVVLGEDKKKFKTRSGETVRLMDLLGEGLKRSMDKLKEKERDKVLTAEELNAAQTSVAYGCIKYADLSHNRLNDYIFSFDKMLDDRGNTAAYLLYAFTRIRSIARLANIDEEMLQKAARETKILLDHEKEWKLGRCILRFPEILQKILDDLFLHTLCDYIYELATAFTEFYDSCYCVEKDRQTGKILKVNMWRMLLCEAVAAVMAKGFDILGIKPVQRM
B3: Ribosome-binding protein 1 (protein, UniProt Q9P2E9 1-1410)
chain: MDIYDTQTLGVVVFGGFMVVSAIGIFLVSTFSMKETSYEEALANQRKEMAKTHHQKVEKKKKEKTVEKKGKTKKKEEKPNGKIPDHDPAPNVTVLLREPVRAPAVAVAPTPVQPPIIVAPVATVPAMPQEKLASSPKDKKKKEKKVAKVEPAVSSVVNSIQVLTSKAAILETAPKEVPMVVVPPVGAKGNTPATGTTQGKKAEGTQNQSKKAEGAPNQGRKAEGTPNQGKKTEGTPNQGKKAEGTPNQGKKAEGTPNQGKKAEGAQNQGKKVDTTPNQGKKVEGAPTQGRKAEGAQNQAKKVEGAQNQGKKAEGAQNQGKKGEGAQNQGKKAEGAQNQGKKAEGAQNQGKKAEGAQNQGKKAEGAQNQGKKAEGAQNQGKKAEGAQNQGKKVEGAQNQGKKAEGAQNQGKKAEGAQNQGKKAEGAQNQGKKAEGAQNQGKKAEGAQNQGKKAEGAQNQGKKAEGAQNQGKKVEGAQNQGKKAEGAQNQGKKAEGAQNQGKKAEGAQNQGQKGEGAQNQGKKTEGAQGKKAERSPNQGKKGEGAPIQGKKADSVANQGTKVEGITNQGKKAEGSPSEGKKAEGSPNQGKKADAAANQGKKTESASVQGRNTDVAQSPEAPKQEAPAKKKSGSKKKGEPGPPDADGPLYLPYKTLVSTVGSMVFNEGEAQRLIEILSEKAGIIQDTWHKATQKGDPVAILKRQLEEKEKLLATEQEDAAVAKSKLRELNKEMAAEKAKAAAGEAKVKKQLVAREQEITAVQARMQASYREHVKEVQQLQGKIRTLQEQLENGPNTQLARLQQENSILRDALNQATSQVESKQNAELAKLRQELSKVSKELVEKSEAVRQDEQQRKALEAKAAAFEKQVLQLQASHRESEEALQKRLDEVSRELCHTQSSHASLRADAEKAQEQQQQMAELHSKLQSSEAEVRSKCEELSGLHGQLQEARAENSQLTERIRSIEALLEAGQARDAQDVQASQAEADQQQTRLKELESQVSGLEKEAIELREAVEQQKVKNNDLREKNWKAMEALATAEQACKEKLLSLTQAKEESEKQLCLIEAQTMEALLALLPELSVLAQQNYTEWLQDLKEKGPTLLKHPPAPAEPSSDLASKLREAEETQSTLQAECDQYRSILAETEGMLRDLQKSVEEEEQVWRAKVGAAEEELQKSRVTVKHLEEIVEKLKGELESSDQVREHTSHLEAELEKHMAAASAECQNYAKEVAGLRQLLLESQSQLDAAKSEAQKQSDELALVRQQLSEMKSHVEDGDIAGAPASSPEAPPAEQDPVQLKTQLEWTEAILEDEQTQRQKLTAEFEEAQTSACRLQEELEKLRTAGPLESSETEEASQLKERLEKEKKLTSDLGRAATRLQELLKTTQEQLAREKDTVKKLQEQLEKAEDGSSSKEGTSV
B4: ADP/ATP translocase 3 (protein, UniProt P12236 1-298)
chain: MTEQAISFAKDFLAGGIAAAISKTAVAPIERVKLLLQVQHASKQIAADKQYKGIVDCIVRIPKEQGVLSFWRGNLANVIRYFPTQALNFAFKDKYKQIFLGGVDKHTQFWRYFAGNLASGGAAGATSLCFVYPLDFARTRLAADVGKSGTEREFRGLGDCLVKITKSDGIRGLYQGFSVSVQGIIIYRAAYFGVYDTAKGMLPDPKNTHIVVSWMIAQTVTAVAGVVSYPFDTVRRRMMMQSGRKGADIMYTGTVDCWRKIFRDEGGKAFFKGAWSNVLRGMGGAFVLVLYDELKKVI
B5: Protein disulfide-isomerase A6 (protein, UniProt Q15084 20-440)
chain: LYSSSDDVIELTPSNFNREVIQSDSLWLVEFYAPWCGHCQRLTPEWKKAATALKDVVKVGAVDADKHHSLGGQYGVQGFPTIKIFGSNKNRPEDYQGGRTGEAIVDAALSALRQLVKDRLGGRSGGYSSGKQGRSDSSSKKDVIELTDDSFDKNVLDSEDVWMVEFYAPWCGHCKNLEPEWAAAASEVKEQTKGKVKLAAVDATVNQVLASRYGIRGFPTIKIFQKGESPVDYDGGRTRSDIVSRALDLFSDNAPPPELLEIINEDIAKRTCEEHQLCVVAVLPHILDTGAAGRNSYLEVLLKLADKYKKKMWGWLWTEAGAQSELETALGIGGFGYPAMAAINARKMKFALLKGSFSEQGINEFLRELSFGRGSTAPVGGGAFPTIVEREPWDGRDGELPVEDDIDLSDVELDDLGKDEL
B6: RNA-binding protein 14 (protein, UniProt Q96PK6 1-669)
chain: MKIFVGNVDGADTTPEELAALFAPYGTVMSCAVMKQFAFVHMRENAGALRAIEALHGHELRPGRALVVEMSRPRPLNTWKIFVGNVSAACTSQELRSLFERRGRVIECDVVKDYAFVHMEKEADAKAAIAQLNGKEVKGKRINVELSTKGQKKGPGLAVQSGDKTKKPGAGDTAFPGTGGFSATFDYQQAFGNSTGGFDGQARQPTPPFFGRDRSPLRRSPPRASYVAPLTAQPATYRAQPSVSLGAAYRAQPSASLGVGYRTQPMTAQAASYRAQPSVSLGAPYRGQLASPSSQSAAASSLGPYGGAQPSASALSSYGGQAAAASSLNSYGAQGSSLASYGNQPSSYGAQAASSYGVRAAASSYNTQGAASSLGSYGAQAASYGAQSAASSLAYGAQAASYNAQPSASYNAQSAPYAAQQAASYSSQPAAYVAQPATAAAYASQPAAYAAQATTPMAGSYGAQPVVQTQLNSYGAQASMGLSGSYGAQSAAAATGSYGAAAAYGAQPSATLAAPYRTQSSASLAASYAAQQHPQAAASYRGQPGNAYDGAGQPSAAYLSMSQGAVANANSTPPPYERTRLSPPRASYDDPYKKAVAMSKRYGSDRRLAELSDYRRLSESQLSFRRSPTKSSLDYRRLPDAHSDYARYSGSYNDYLRAAQMHSGYQRRM
B7: LIM and SH3 domain protein 1 (protein, UniProt Q14847 1-261)
chain: MNPNCARCGKIVYPTEKVNCLDKFWHKACFHCETCKMTLNMKNYKGYEKKPYCNAHYPKQSFTMVADTPENLRLKQQSELQSQVRYKEEFEKNKGKGFSVVADTPELQRIKKTQDQISNIKYHEEFEKSRMGPSGGEGMEPERRDSQDGSSYRRPLEQQQPHHIPTSAPVYQQPQQQPVAQSYGGYKEPAAPVSIQRSAPGGGGKRYRAVYDYSAADEDEVSFQDGDTIVNVQQIDDGWMYGTVERTGDTGMLPANYVEAI
B8: Ataxin-2-like protein (protein, UniProt Q8WWM7 1-1075)
chain: MLKPQPLQQPSQPQQPPPTQQAVARRPPGGTSPPNGGLPGPLATSAAPPGPPAAASPCLGPVAAAGSGLRRGAEGILAPQPPPPQQHQERPGAAAIGSARGQSTGKGPPQSPVFEGVYNNSRMLHFLTAVVGSTCDVKVKNGTTYEGIFKTLSSKFELAVDAVHRKASEPAGGPRREDIVDTMVFKPSDVMLVHFRNVDFNYATKDKFTDSAIAMNSKVNGEHKEKVLQRWEGGDSNSDDYDLESDMSNGWDPNEMFKFNEENYGVKTTYDSSLSSYTVPLEKDNSEEFRQRELRAAQLAREIESSPQYRLRIAMENDDGRTEEEKHSAVQRQGSGRESPSLASREGKYIPLPQRVREGPRGGVRCSSSRGGRPGLSSLPPRGPHHLDNSSPGPGSEARGINGGPSRMSPKAQRPLRGAKTLSSPSNRPSGETSVPPPPAVGRMYPPRSPKSAAPAPISASCPEPPIGSAVPTSSASIPVTSSVSDPGVGSISPASPKISLAPTDVKELSTKEPGRTLEPQELARIAGKVPGLQNEQKRFQLEELRKFGAQFKLQPSSSPENSLDPFPPRILKEEPKGKEKEVDGLLTSEPMGSPVSSKTESVSDKEDKPPLAPSGGTEGPEQPPPPCPSQTGSPPVGLIKGEDKDEGPVAEQVKKSTLNPNAKEFNPTKPLLSVNKSTSTPTSPGPRTHSTPSIPVLTAGQSGLYSPQYISYIPQIHMGPAVQAPQMYPYPVSNSVPGQQGKYRGAKGSLPPQRSDQHQPASAPPMMQAAAAAGPPLVAATPYSSYIPYNPQQFPGQPAMMQPMAHYPSQPVFAPMLQSNPRMLTSGSHPQAIVSSSTPQYPSAEQPTPQALYATVHQSYPHHATQLHAHQPQPATTPTGSQPQSQHAAPSPVQHQAGQAPHLGSGQPQQNLYHPGALTGTPPSLPPGPSAQSPQSSFPQPAAVYAIHHQQLPHGFTNMAHVTQAHVQTGITAAPPPHPGAPHPPQVMLLHPPQSHGGPPQGAVPQSGVPALSASTPSPYPYIGHPQGEQPGQAPGFPGGADDRIREFSLAGGIWHGRAEGLQVGQDARVLGGE
B9: Heterogeneous nuclear ribonucleoprotein H3 (protein, UniProt P31942 1-346)
chain: MDWVMKHNGPNDASDGTVRLRGLPFGCSKEEIVQFFQGLEIVPNGITLTMDYQGRSTGEAFVQFASKEIAENALGKHKERIGHRYIEIFRSSRSEIKGFYDPPRRLLGQRPGPYDRPIGGRGGYYGAGRGSMYDRMRRGGDGYDGGYGGFDDYGGYNNYGYGNDGFDDRMRDGRGMGGHGYGGAGDASSGFHGGHFVHMRGLPFRATENDIANFFSPLNPIRVHIDIGADGRATGEADVEFVTHEDAVAAMSKDKNNMQHRYIELFLNSTPGGGSGMGGSGMGGYGRDGMDNQGGYGSVGRMGMGNNYSGGYGTPDGLGGYGRGGGGSGGYYGQGGMSGGGWRGMY

No constants are given. Whether binding was seen depends on the method and setting. In cells and extracts the contact can be indirect. Here binding means that the protein was enriched with, or labelled near, the bait; the list need not be complete.

This assay has as its target Strep-tagged nucleoprotein (NP) of lymphocytic choriomeningitis virus, encoded by rLCMV/Strep-NP (lymphocytic choriomeningitis virus (LCMV), clone 13) (UniProt P09992). Put plainly: affinity purification with mass spectrometry.
Take B1: the binding result is given as “binds”.

With B2, the binding result was “binds”.

As to B3, the binding entry is “binds”.

On to B4, for which the binding result is reported as “binds”.

For B5, the binding entry is “binds”.

In the case of B6, the binding result is recorded as “binds”.

Take B7: the binding result is given as “binds”.

For the molecule B8, the binding result was “binds”.

On to B9, for which the binding entry is given as “binds”.
